{"source": "PubChem BioAssay AID493014", "about": "(National Center for Advancing Translational Sciences (NCATS), 2011)", "note": "Among all 340,000 compounds or so, about 170 (0.05%) were called active. The shares of active, inactive and inconclusive entries below differ from those in the screen. Calls come from the whole dose curve; as a rule, active = well fitted inhibition curve with a large enough effect in the signal ratio, with a control signal flat (not every such curve was filed as active); inconclusive = small, poorly fitted or top-dose-only effect, or effect the other way, or a change in a side signal; inactive = flat fitted curve, though single readings scatter; the % refers to the signal ratio. Potencies of inconclusive entries are doubtful fits and often do not repeat. Potency is the fitted concentration of half-maximal effect.", "data": [{"assay": "qHTS Assay to Find Inhibitors of Chronic Active B-Cell Receptor Signaling;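 for activity change, negative = inhibition: plate controls were basal doxycycline-induced cells for no effect and cells given 10 µM MG132 for full effect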", "settings": "ABC-DLBCL IkBa-CBG/CBR reporter, luminescence ratio (green luciferase fused to IkBa over red control in TMD8 lymphoma cells), 4 h; activity change, negative = inhibition: at 46.1 µM (top of the series)", "outline": "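TMD8 ABC-DLBCL cells carrying doxycycline-inducible green luciferase fused to IkappaBalpha plus unfused red luciferase were exposed to compounds (up to 46 uM) for 4 hrs at 37C. Activity came from the overlap-corrected green/red luminescence ratio.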", "values": [{"compound": "Cc1ccc(C2(C(=O)N3CCC(n4nc(-c5ccccc5)oc4=O)CC3)CC2)cc1", "activity change, negative = inhibition": "inactive: -1.38%"}, {"compound": "Nc1ccc(C(=O)O)cc1", "activity change, negative = inhibition": "inconclusive: -1.44%"}, {"compound": "COc1cccc(-c2cnc(NCc3cc(Cl)ccc3O)n2C)c1", "activity change, negative = inhibition": "inconclusive: 7.8%"}, {"compound": "Nc1cc(Cl)ccc1C(=O)OCC(=O)NCc1cccs1", "activity change, negative = inhibition": "inconclusive: -14.4%"}, {"compound": "CCOC(=O)c1cnn2c(C)cc(-c3ccccc3)nc12", "activity change, negative = inhibition": "inconclusive: -16%"}, {"compound": "CCn1nc(C)c(CN2CCc3c([nH]c4ccccc34)C2C(C)(C)C)c1C", "note": "(stereo not drawn)", "Potency": "inconclusive: 35.5 µM [falling, partial curve, poor fit]"}, {"compound": "COC(=O)c1ccc(Oc2nc(NC(C)(C)C)nc(N3CCOCC3)n2)cc1", "activity change, negative = inhibition": "inactive: 9.13%"}, {"compound": "Cc1ccc(O)c(NC2=C(Cl)C(=O)N(Cc3ccccc3)C2=O)c1", "activity change, negative = inhibition": "inconclusive: -19.6%"}, {"compound": "COc1ccc(OC)c(/C=N/N=C2\\SCC(=O)N2Cc2ccco2)c1", "activity change, negative = inhibition": "inactive: -7.2%"}, {"compound": "Cc1ccc(Cl)cc1N1CCN(Cc2cc3c(cc2O)CCC3)CC1", "Potency": "inconclusive: 5.8 µM [falling, single point]"}, {"compound": "O=c1c(-c2ccccc2)coc2c(CN3CCCC3)c(O)ccc12", "activity change, negative = inhibition": "inactive: -0.896%"}, {"compound": "O=C(Nc1n[nH]c(=S)s1)c1ccc2ccccc2c1", "activity change, negative = inhibition": "inconclusive: -16.9%"}, {"compound": "Cc1cccc(-n2ncc3c(N4CCc5ccccc54)ncnc32)c1", "Potency": "inconclusive: 3.26 µM [rising, single point]"}, {"compound": "COc1cccc(NC(=O)Cn2cnc3sc(C)c(S(=O)(=O)N4CCCCC4)c3c2=O)c1", "Potency": "inconclusive: 8.2 µM [falling, partial curve]"}, {"compound": "CCCCCC(=O)Nc1nc2ccccc2[nH]1", "Potency": "inconclusive: 20.6 µM [falling, partial curve]"}, {"compound": "COc1ccc2c(c1)OC13CCCCC1C2C(C(=O)c1ccccc1)C(=O)N3", "note": "(stereo not drawn)", "activity change, negative = inhibition": "inconclusive: 12.4%"}, {"compound": "N#Cc1nc(-c2ccc(OCc3ccccc3)cc2)oc1NCc1cccnc1", "activity change, negative = inhibition": "inconclusive: -3.13%"}, {"compound": "CCCCCOCC1CC(C/C(C)=N/NC(N)=S)C(=O)O1", "note": "(stereo not drawn)", "Potency": "inconclusive: 29.1 µM [falling, single point]"}, {"compound": "Cc1c(C(=O)N2CCN(C(=O)c3ccccc3)CC2)oc2ccc(F)cc12", "activity change, negative = inhibition": "inconclusive: -1.08%"}, {"compound": "C/C(O)=c1/cnc2nc3ccccc3n2c1=O", "activity change, negative = inhibition": "inconclusive: 6.53%"}, {"compound": "COc1ccc(S(=O)(=O)N2CCOC2CNC(=O)C(=O)NCc2ccncc2)cc1OC", "note": "(stereo not drawn)", "activity change, negative = inhibition": "inconclusive: 0.552%"}, {"compound": "CSc1ccccc1NC(=O)CN(C)C(=O)C1CCN(C(=O)Nc2ccccc2)CC1", "activity change, negative = inhibition": "inactive: -7.1%"}, {"compound": "CCc1ccc(C(C(=O)NC2CCCC2)N(C(=O)c2csnn2)C2CC2)cc1", "note": "(stereo not drawn)", "activity change, negative = inhibition": "inconclusive: -0.124%"}, {"compound": "CC(=O)OCCCn1c(C)[n+](C)c2cc(Cl)c(Cl)cc21", "Potency": "inconclusive: 6.31 µM [rising, partial curve, poor fit]"}, {"compound": "Cc1ccccc1-c1ncc(CN2CCN(C3CCCCC3)C(CCO)C2)cn1", "note": "(stereo not drawn)", "activity change, negative = inhibition": "inconclusive: 4.51%"}, {"compound": "C=CCN(CC=C)C(=S)NC(=O)c1ccc(-c2ccccc2)cc1", "activity change, negative = inhibition": "inconclusive: -9.84%"}, {"compound": "C/C(CC(=O)Nc1ccc(C)c(Cl)c1)=N\\NC(=O)c1ccccn1", "Potency": "inconclusive: 22.4 µM [falling, partial curve]"}, {"compound": "Cc1ccccc1OCC(=O)Nc1cccc(NC(=O)c2ccco2)c1", "Potency": "inconclusive: 1.26 µM [falling, full curve]"}, {"compound": "O=C(O)CCc1cccnc1", "activity change, negative = inhibition": "inconclusive: 2.81%"}, {"compound": "COc1ccc(/C=C/c2noc(-c3ccccc3OC(C)=O)n2)cc1", "Potency": "inconclusive: 31.6 µM [rising, single point]"}, {"compound": "O=C(Nc1ccc([N+](=O)[O-])cn1)C1CCCCC1", "Potency": "inconclusive: 20.6 µM [falling, single point]"}, {"compound": "CC(C)(C)OC(=O)N1C[C@H](O)C[C@H]1C(=O)OCC(=O)c1ccc([N+](=O)[O-])cc1", "activity change, negative = inhibition": "inactive: -12.6%"}, {"compound": "Cc1cccc(COCC(Cc2ccccc2)N2CCN(C(=O)c3cccc(C)c3)CCC2=O)c1", "note": "(stereo not drawn)", "activity change, negative = inhibition": "inactive: -7.77%"}, {"compound": "CC(=O)c1cc(-c2ccc(F)cc2)n(CCC(=O)Nc2cccc(C)n2)c1C", "Potency": "inconclusive: 35.5 µM [rising, single point]"}, {"compound": "O=C(Nc1nnc(-c2ccccc2)o1)NC1CCCCC1", "activity change, negative = inhibition": "inactive: 2.48%"}, {"compound": "COc1cccc(Nc2nc(-c3cccs3)nc3ccccc23)c1", "activity change, negative = inhibition": "inconclusive: 18.7%"}, {"compound": "COc1cccc(/C=N/NC(=O)N/N=C/c2cccc(OC)c2O)c1O", "Potency": "inconclusive: 11.2 µM [falling, partial curve]"}, {"compound": "O=C(Nc1ccccc1)OCCOc1ccc(Br)cc1", "activity change, negative = inhibition": "inconclusive: 4.23%"}, {"compound": "COCCOC(=O)c1c(C)oc2ccc(NS(=O)(=O)c3ccc(C)cc3)cc12", "activity change, negative = inhibition": "inactive: -2.87%"}, {"compound": "CC(C)N(C(=O)c1ccc(-c2ccccc2F)cc1)C(C)C", "activity change, negative = inhibition": "inconclusive: 5.99%"}, {"compound": "N#CC1=C(N)NC(SCc2ccc(Cl)cc2)=C(C#N)C12CCCCC2", "activity change, negative = inhibition": "inactive: 1.14%"}, {"compound": "C=CCn1c(O)c2ccc(C(=O)N=NC(=O)c3ccc(F)cc3)cc2c1O", "Potency": "inconclusive: 9.2 µM [falling, partial curve, poor fit]"}, {"compound": "O=C(Nc1ccc(SC(F)F)cc1)C1=CC=CN2CCS(=O)(=O)N=C12", "activity change, negative = inhibition": "inconclusive: 2.15%"}, {"compound": "Cc1ccccc1-c1cc(C(=O)NCc2ccco2)nn1CC1CC(c2cccc([N+](=O)[O-])c2)=NO1", "note": "(stereo not drawn)", "activity change, negative = inhibition": "inconclusive: -0.0705%"}, {"compound": "O=C(Nc1nc2cc3c(cc2s1)OCO3)c1ccco1", "Potency": "inconclusive: 5.62 µM [falling, single point]"}, {"compound": "O=C(CN1C=NS(=O)(=O)c2ccccc21)Nc1ccc(Br)cc1", "Potency": "inconclusive: 11.2 µM [falling, partial curve, poor fit]"}, {"compound": "OC(CN1CCN(c2ccc(C(F)(F)F)cn2)CC1)c1ccccc1", "note": "(stereo not drawn)", "activity change, negative = inhibition": "inconclusive: 7.31%"}, {"compound": "O=[N+]([O-])c1ccc(-c2cn(-c3ccccc3)c(=S)[nH]2)cc1", "activity change, negative = inhibition": "inconclusive: 16.7%"}, {"compound": "O=S(=O)(c1ccccc1)c1cccc(S(=O)(=O)N2CCCCC2)c1", "activity change, negative = inhibition": "inconclusive: 4.02%"}, {"compound": "Cn1cc(CNCc2ccc(OC(F)(F)F)cc2)c(-c2ccc3c(c2)OCCO3)n1", "activity change, negative = inhibition": "inactive: -11.2%"}, {"compound": "O=C(O)CSc1cc(NS(=O)(=O)c2cccc([N+](=O)[O-])c2)c2ccccc2c1O", "activity change, negative = inhibition": "inconclusive: -27.8%"}, {"compound": "CCCN(CC1CC1)C(=O)COc1ccccc1C(=O)NCc1ccccc1", "Potency": "inconclusive: 29.1 µM [rising, partial curve, poor fit]"}, {"compound": "O=C(Nc1ccc(Cl)cc1)c1ccc2ncsc2c1", "Potency": "inconclusive: 35.5 µM [falling, single point]"}, {"compound": "CC(CC(=O)Nc1nc2ccccc2[nH]1)c1ccccc1", "note": "(stereo not drawn)", "Potency": "inconclusive: 14.6 µM [falling, partial curve]"}, {"compound": "N/C(=N\\OC(=O)c1cc([N+](=O)[O-])ccc1Cl)c1cccnc1", "activity change, negative = inhibition": "inactive: 11%"}, {"compound": "CCc1ccc2nc(N=C(N)N)nc(C)c2c1", "activity change, negative = inhibition": "inconclusive: -16.9%"}, {"compound": "Cc1ccc(NS(=O)(=O)c2ccccc2)c2c1CC(C)(C)O2", "activity change, negative = inhibition": "inconclusive: 7.73%"}, {"compound": "NCCCCCc1nnc(SCc2ccc(Cl)cc2Cl)o1", "activity change, negative = inhibition": "inconclusive: -12.8%"}, {"compound": "N#Cc1cc(-c2ccccc2)[nH]c1-c1nccc2ccccc12", "activity change, negative = inhibition": "inconclusive: -0.762%"}, {"compound": "CC(C)c1ccc(S(=O)(=O)N2CCN(CC(=O)Nc3ccc4c(c3)OCO4)CC2)cc1", "activity change, negative = inhibition": "inactive: -1.79%"}, {"compound": "N#CN=C1SCCS1", "activity change, negative = inhibition": "inconclusive: -0.758%"}, {"compound": "NCCCC[C@H]1CNC(=S)N1CCc1cccc(F)c1", "activity change, negative = inhibition": "inconclusive: -3.37%"}, {"compound": "COCCn1c(SCC(=O)Nc2cccnc2Cl)nc2ccccc2c1=O", "activity change, negative = inhibition": "inactive: -1.3%"}, {"compound": "CC(C)CC(=O)Nc1nc2ccc(S(C)(=O)=O)cc2s1", "activity change, negative = inhibition": "inconclusive: 0.453%"}, {"compound": "O=C(Nc1nncs1)c1cccc(S(=O)(=O)N2CCCC2)c1", "activity change, negative = inhibition": "inconclusive: 6.75%"}, {"compound": "Cc1nc(C(=O)NNC(=O)c2c(-c3c(Cl)cccc3Cl)noc2C)cs1", "activity change, negative = inhibition": "inactive: -9.07%"}, {"compound": "Cc1ncsc1CCOC(=O)c1ccccc1", "activity change, negative = inhibition": "inconclusive: 0.515%"}, {"compound": "CC(C(=O)NC1=NCCS1)(C(F)(F)F)C(F)(F)F", "activity change, negative = inhibition": "inconclusive: 13.6%"}, {"compound": "CCc1nnc(NC(=O)C2Cc3ccccc3CN2S(=O)(=O)c2ccc(C)cc2)s1", "note": "(stereo not drawn)", "activity change, negative = inhibition": "inconclusive: 11.5%"}, {"compound": "Cc1ccc(CN2C(=O)CSC2c2cccnc2)cc1", "note": "(stereo not drawn)", "activity change, negative = inhibition": "inconclusive: -9.05%"}, {"compound": "COc1ccc(N(CC(=O)NCCOc2ccccc2)S(=O)(=O)c2ccc(C)cc2)cc1", "activity change, negative = inhibition": "inactive: -1.6%"}, {"compound": "O=C(NN1c2ccccc2CCc2ccccc21)c1ccccc1Br", "activity change, negative = inhibition": "inactive: 1.77%"}, {"compound": "CCOC(=O)Cc1csc(NC(=O)c2ccc(N3CCOCC3)cc2[N+](=O)[O-])n1", "Potency": "inconclusive: 20.6 µM [falling, single point]"}, {"compound": "CC(=O)N(C(C)=O)C1=C(C#N)C2(CCCCC2)Cc2ccccc21", "activity change, negative = inhibition": "inconclusive: -0.309%"}, {"compound": "O=[N+]([O-])c1ccc(-n2ccnc2)cc1", "activity change, negative = inhibition": "inconclusive: -3.44%"}, {"compound": "Cc1ccnc(SCC(=O)Nc2sc3c(c2C#N)CCCC3)n1", "activity change, negative = inhibition": "inconclusive: 3.08%"}, {"compound": "Cc1cccc(NC(=O)CN(c2ccc(F)cc2)S(C)(=O)=O)c1", "activity change, negative = inhibition": "inconclusive: 26.9%"}, {"compound": "CCC(=O)OCC(=O)N=c1sccn1Cc1ccc(C)cc1", "Potency": "inconclusive: 15.8 µM [falling, single point]"}, {"compound": "O=C(CN1CCCCC1)N/N=C/c1ccccc1OCc1ccccc1", "activity change, negative = inhibition": "inconclusive: 3.21%"}, {"compound": "COc1cc(C(C[N+](=O)[O-])c2c(-c3ccccc3)cc3ccccn23)cc(OC)c1OC", "note": "(stereo not drawn)", "Potency": "inconclusive: 16.4 µM [falling, single point]"}, {"compound": "CCOC(=O)C1CCCN(C(c2ccccn2)c2c(C)[nH]c3ccccc23)C1", "note": "(stereo not drawn)", "activity change, negative = inhibition": "inconclusive: -4.31%"}, {"compound": "COc1ccc(C(=O)c2ccc(Cl)c([N+](=O)[O-])c2)cc1", "Potency": "inconclusive: 18.4 µM [falling, single point]"}, {"compound": "Cc1ccc(S(=O)(=O)NC(=O)Nc2ccc(N(C)C)cc2)cc1", "activity change, negative = inhibition": "inconclusive: -13.6%"}]}]}
